Results are given in words; binding and its absence hold for the method and conditions named. Binding seen in cells or lysates may run through a third protein. Some results given as binding are weak or reduced against the parent protein; the word gives no strength. For some of these results: Tags and fused reporters may be left off the sequences shown. Values belong to the molecule of their own block, whether it stands above or below them.
Key:
[1] = target: T1, PGAM5-HA (full-length PGAM5, HA-tagged) in RAW264.7 cells (UniProt Q8BX10); assay: co-IP; RAW264.7 whole-cell lysate incubated with primary antibody (anti-FLAG or anti-HA) overnight at 4 °C, protein A/G magnetic beads 6 h, irrelevant IgG as control, western blot; for PGAM5-HA and NDUFV1 also cells with SLC7A5 knock-down
T1 sequence: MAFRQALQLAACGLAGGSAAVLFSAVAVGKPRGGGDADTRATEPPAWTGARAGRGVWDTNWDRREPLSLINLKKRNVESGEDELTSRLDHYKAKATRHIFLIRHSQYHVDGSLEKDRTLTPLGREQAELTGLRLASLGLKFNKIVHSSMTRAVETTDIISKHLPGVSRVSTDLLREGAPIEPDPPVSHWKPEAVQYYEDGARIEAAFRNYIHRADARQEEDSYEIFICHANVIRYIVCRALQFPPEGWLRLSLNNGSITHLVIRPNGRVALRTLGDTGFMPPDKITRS

Amino acid sequences for entries named in this document (tags omitted).
UniProt Q9Z127: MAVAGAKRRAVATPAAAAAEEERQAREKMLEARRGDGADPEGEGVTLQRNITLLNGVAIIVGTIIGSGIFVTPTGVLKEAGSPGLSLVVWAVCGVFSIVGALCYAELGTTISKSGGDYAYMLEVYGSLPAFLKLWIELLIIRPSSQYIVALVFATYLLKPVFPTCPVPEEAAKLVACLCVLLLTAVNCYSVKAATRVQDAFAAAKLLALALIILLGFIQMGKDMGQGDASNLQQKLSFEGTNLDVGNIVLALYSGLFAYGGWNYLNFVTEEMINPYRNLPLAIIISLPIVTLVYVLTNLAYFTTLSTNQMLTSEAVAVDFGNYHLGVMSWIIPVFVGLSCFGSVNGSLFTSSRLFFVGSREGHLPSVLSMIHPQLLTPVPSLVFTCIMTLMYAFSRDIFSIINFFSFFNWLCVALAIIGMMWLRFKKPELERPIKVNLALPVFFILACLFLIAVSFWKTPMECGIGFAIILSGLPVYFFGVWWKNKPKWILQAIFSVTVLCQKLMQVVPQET

[2] = target: SLC7A5-FLAG (solute carrier family seven member 5/L-type amino acid transporter 1, FLAG-tagged) (UniProt Q9Z127); assay: as above
[3] = target: SLC7A5-FLAG (solute carrier family seven member 5/L-type amino acid transporter 1, FLAG-tagged) (UniProt Q9Z127); assay: co-IP; anti-FLAG co-IP from cytosol and mitochondrial fractions of RAW264.7 cells (Mitochondria Isolation Kit), blot for HA and FLAG
[4] = target: SLC7A5-FLAG (solute carrier family seven member 5/L-type amino acid transporter 1, FLAG-tagged) (UniProt Q9Z127); assay: proximity ligation; Duolink PLA on fixed, permeabilised RAW264.7 cells transfected with SLC7A5-FLAG and PGAM5-HA (antibodies to FLAG and HA); also co-stained with MitoTracker; also under leucine deficiency by the text

binding [1]: binds
Molecule: SLC7A5-FLAG (solute carrier family seven member 5/L-type amino acid transporter 1, FLAG-tagged) (from UniProt Q9Z127 1-512)

binding [2]: binds
B1: endogenous PGAM5 (phosphoglycerate mutase 5) of RAW264.7 cells (protein, UniProt Q8BX10 1-288)
chain: MAFRQALQLAACGLAGGSAAVLFSAVAVGKPRGGGDADTRATEPPAWTGARAGRGVWDTNWDRREPLSLINLKKRNVESGEDELTSRLDHYKAKATRHIFLIRHSQYHVDGSLEKDRTLTPLGREQAELTGLRLASLGLKFNKIVHSSMTRAVETTDIISKHLPGVSRVSTDLLREGAPIEPDPPVSHWKPEAVQYYEDGARIEAAFRNYIHRADARQEEDSYEIFICHANVIRYIVCRALQFPPEGWLRLSLNNGSITHLVIRPNGRVALRTLGDTGFMPPDKITRS

binding [3]: binds
binding [4]: binds
B2: PGAM5-HA (full-length PGAM5, HA-tagged) in RAW264.7 cells (protein, UniProt Q8BX10 1-288)
chain: MAFRQALQLAACGLAGGSAAVLFSAVAVGKPRGGGDADTRATEPPAWTGARAGRGVWDTNWDRREPLSLINLKKRNVESGEDELTSRLDHYKAKATRHIFLIRHSQYHVDGSLEKDRTLTPLGREQAELTGLRLASLGLKFNKIVHSSMTRAVETTDIISKHLPGVSRVSTDLLREGAPIEPDPPVSHWKPEAVQYYEDGARIEAAFRNYIHRADARQEEDSYEIFICHANVIRYIVCRALQFPPEGWLRLSLNNGSITHLVIRPNGRVALRTLGDTGFMPPDKITRS
